Results taken from patent US20100167925A1, “Substituted Azolin-2-yl-Amino Compounds” (BASF SE, priority 2006, published 2010).
Some of these results come from one statement about several compounds together.

Key:
Aphis gossypii = assay: Cotton aphid (Aphis gossypii) mortality on dipped cotton plants; assay type: in vivo; settings: 300 ppm; cotton plants in cotyledon stage dipped into test solution; aphid mortality determined after 5 days
Experimental: I. Cotton Aphid (Aphis gossypii)
(§1) Cotton plants in the cotyledon stage (variety ‘Delta Pine’) are infested with approximately 100 laboratory-reared aphids by placing infested leaf sections on top of the test plants. The leaf sections are removed after 24 hours. The cotyledons of the intact plants are dipped into gradient solutions of the test compound. Aphid mortality on the treated plants, relative to mortality on check plants, is determined after 5 days.

Myzus persicae = assay: Green peach aphid (Myzus persicae) mortality on dipped pepper plants; assay type: in vivo; settings: 300 ppm; pepper plants in 2nd leaf-pair stage dipped into test solution; aphid mortality determined after 5 days
Experimental: I.b. Green Peach Aphid (Myzus persicae)
as §1, with “Pepper” for “Cotton”, “2nd leaf-pair” for “cotyledon”, “‘California Wonder’)” for “‘Delta Pine’)”, “40” for “100”, “leaves” for “cotyledons”

| SMILES | mortality in comparison with untreated controls (Aphis gossypii) | mortality in comparison with untreated controls (Myzus persicae) |
| --- | --- | --- |
| CC1Cc2ccccc2C1NC1=NCCS1 (single isomer, unassigned) [Example 19a] | over 70% | over 70% |
| Fc1cc(F)c2c(c1)C(NC1=NCCS1)CO2 (stereo not drawn) [Example 9] | over 70% | over 70% |
| Clc1ccc2c(c1)C(NC1=NCCS1)CO2 (stereo not drawn) [Example 14] | over 70% |  |
| CCC1Cc2ccccc2C1NC1=NCCS1 (stereo not drawn) [Example 20] | over 70% | over 70% |
| Clc1cc(Cl)c2c(c1)C(NC1=NCCS1)CO2 (stereo not drawn) [Example 11] |  | over 70% |
| c1ccc2c(c1)OCC2NC1=NCCS1 (stereo not drawn) [Example 8] |  | over 70% |
| Fc1cc(F)cc(C2CC(NC3=NCCS3)c3ccccc32)c1 (stereo not drawn) [Example 5] | over 70% |  |
| c1ccc2c(c1)OCCC2NC1=NCCS1 (stereo not drawn) [Example 28] | over 70% | over 70% |
| C=CCC1Cc2ccccc2C1NC1=NCCS1 (stereo not drawn) [Example 23] | over 70% | over 70% |
| C#CCC1Cc2ccccc2C1NC1=NCCS1 (stereo not drawn) [Example 26] | over 70% | over 70% |
| Fc1cccc2c1OCC2NC1=NCCS1 (stereo not drawn) [Example 16] | over 70% |  |
| Fc1ccc2c(c1)C(NC1=NCCS1)CO2 (stereo not drawn) [Example 12] | over 70% | over 70% |
| FC1(F)Cc2ccccc2C1NC1=NCCS1 (stereo not drawn) [Example 25] | over 70% | over 70% |
